Experimental data reported in patent publication US8895303B2, “Method of cell culture and method of treatment comprising a vEPO protein variant” (Charite-Universitatsmedizin Berlin, priority 2006, dated 2014).
Some results were stated once for a whole list of compounds, not compound by compound.

Test system: rat primary cortical neurons
Experiment: Oxygen glucose deprivation (OGD) neuroprotection assay, LDH release
Type: cell-based
Details: for protection rate (reduction in LDH release): OGD 1 h 40 min and 1 h 50 min; for protection (reduction in LDH release): OGD 2 h 45 min

Molecule	protection rate (reduction in LDH release)	protection (reduction in LDH release)
mS: murine EPO splice variant, peptide sequence SEQ ID NO 14 (protein, listed as Mus musculus) MGVPERPTLLLLLSLLLIPLGLPVLCAPPRLICDSRVLERYILEAKEAENVTMGCAEGPRLSENITVPDTKVNFYAWKRMEKELMSPPDTTPPAPLRTLTVDTFCKLFRVYANFLRGKLKLYTGEVCRRGDR	40-50%	60-70%
mG3: murine EPO variant, peptide sequence SEQ ID NO 16 (protein, listed as Mus musculus) MGVPERPTLLLLLSLLLIPLGLPVLCAPPRLICDSRVLERYILEAKEAENVTMGCAEGPRLSENITVPDTKVNFYAWKRMEVEEQAIEVWQGLSLLSEAILQAQALLANFLRGKLKLYTGEVCRRGDR	40-50%	60-70%
mEPO: wild type mouse erythropoietin expressed in HEK cells (protein, listed as Mus musculus) MGVPERPTLLLLLSLLLIPLGLPVLCAPPRLICDSRVLERYILEAKEAENVTMGCAEGPRLSENITVPDTKVNFYAWKRMEVEEQAIEVWQGLSLLSEAILQAQALLANSSQPPETLQLHIDKAISGLRSLTSLLRVLGAQKELMSPPDTTPPAPLRTLTVDTFCKLFRVYANFLRGKLKLYTGEVCRRGDR		20-30%
